Data reported in patent US8541460B2, “PDK-1/Akt signaling inhibitors” (The Ohio State University, priority 2003, dated 2013).

Columns and labels:
Type in all cases: cell-based
EKVX = assay: NCI DTP cell line screen (SRB), Non-Small Cell Lung Cancer
Experimental: (§1) Screening of compounds 70 and 71 against several cancer cell lines The human tumor cell lines of the cancer screening panel are grown in RPMI 1640 medium containing 5% fetal bovine serum and 2 mM L-glutamine. For a typical screening experiment, cells are inoculated into 96 well microtiter plates in 100 μL at plating densities ranging from 5,000 to 40,000 cells/well depending on the doubling time of individual cell lines. After cell inoculation, the microtiter plates are incubated at 37° C., 5% CO2, 95% air and 100% relative humidity for 24 h prior to addition of experimental drugs.
(§2) After 24 h, two plates of each cell line are fixed in situ with TCA, to represent a measurement of the cell population for each cell line at the time of drug addition (Tz). Experimental drugs are solubilized in dimethyl sulfoxide at 400-fold the desired final maximum test concentration and stored frozen prior to use. At the time of drug addition, an aliquot of frozen concentrate is thawed and diluted to twice the desired final maximum test concentration with complete medium containing 50 μg/ml gentamicin. Additional four, 10-fold or ½ log serial dilutions are made to provide a total of five drug concentrations plus control. Aliquots of 100 μl of these different drug dilutions are added to the appropriate microtiter wells already containing 100 μl of medium, resulting in the required final drug concentrations.
(§3) Following drug addition, the plates are incubated for an additional 48 h at 37° C., 5% CO2, 95% air, and 100% relative humidity. For adherent cells, the assay is terminated by the addition of cold TCA. Cells are fixed in situ by the gentle addition of 50 μl of cold 50% (w/v) TCA (final concentration, 10% TCA) and incubated for 60 minutes at 4° C. The supernatant is discarded, and the plates are washed five times with tap water and air dried. Sulforhodamine B (SRB) solution (100 μl) at 0.4% (w/v) in 1% acetic acid is added to each well, and plates are incubated for 10 minutes at room temperature. After staining, unbound dye is removed by washing five times with 1% acetic acid and the plates are air dried. Bound stain is subsequently solubilized with 10 mM trizma base, and the absorbance is read on an automated plate reader at a wavelength of 515 nm. For suspension cells, the methodology is the same except that the assay is terminated by fixing settled cells at the bottom of the wells by gently adding 50 μl of 80% TCA (final concentration, 16% TCA). Using the seven absorbance measurements [time zero, (Tz), control growth, (C), and test growth in the presence of drug at the five concentration levels (Ti)], the percentage growth is calculated at each of the drug concentrations levels. Percentage growth inhibition is calculated as: [(Ti−Tz)/(C−Tz)]×100 for concentrations for which Ti>/=Tz [(Ti−Tz)/Tz]×100 for concentrations for which Ti<Tz
(§4) Three dose response parameters are calculated for each experimental agent. […] The drug concentration resulting in total growth inhibition (TGI) is calculated from Ti=Tz. […] Values are calculated for each of these three parameters if the level of activity is reached; however, if the effect is not reached or is exceeded, the value for that parameter is expressed as greater or less than the maximum or minimum concentration tested.
(§5) The methods described were used to test compounds 70 and 71 on a panel of sixty cell lines under a screening service provided by the Developmental Therapeutics Program at the National Institutes of Health. Shown in FIG. 1C are 1, RPMI-8226 leukemia cells; 2; NCI-H322M non-small cell lung cancer cells; 3, HT29 colon cancer cells; 4, U251 CNS cancer cells; 5, SK-MEL-28 melanoma cancer cells; 6, SK-OV-3 ovarian cancer cells; 7, RXF 393 renal cancer cells; 8, PC-3 prostate cancer cells; 9, MDA-MB-231 breast cancer cells.

NCI-H23 = assay: as above
Experimental: as §1, §2, §3, §4, §5

NCI-H460 = assay: as above
Experimental: as §1, §2, §3, §4, §5

LOX IMVI = assay: NCI DTP cell line screen (SRB), Melanoma
Experimental: as §1, §2, §3, §4, §5

M14 = assay: NCI DTP cell line screen (SRB), Melanoma
Experimental: as §1, §2, §3, §4, §5

SN12C = assay: NCI DTP cell line screen (SRB), Renal Cancer
Experimental: as §1, §2, §3, §4
The methods described were used to test compounds 70 and 71 on a panel of sixty cell lines under a screening service provided by the Developmental Therapeutics Program at the National Institutes of Health. […]

NCC(=O)Nc1ccc(-n2nc(C(F)(F)F)cc2-c2ccc3c(ccc4ccccc43)c2)cc1 [Compound 70, 2-Amino-N-{4-[5-(2-phenanthrenyl)-3-(trifluoromethyl)-1H-pyrazol-1-yl]-phenyl}-acetamide]
Mean Optical Densities (EKVX; Log10 Concentration −4.0): 0.193
Mean Optical Densities (EKVX; Log10 Concentration −5.0): 0.156
Mean Optical Densities (EKVX; Log10 Concentration −6.0): 0.786
Mean Optical Densities (EKVX; Log10 Concentration −7.0): 0.860
Mean Optical Densities (EKVX; Log10 Concentration −8.0): 0.891
Mean Optical Densities (NCI-H23; Log10 Concentration −4.0): 0.156
Mean Optical Densities (NCI-H23; Log10 Concentration −5.0): 0.097
Mean Optical Densities (NCI-H23; Log10 Concentration −6.0): 1.255
Mean Optical Densities (NCI-H23; Log10 Concentration −7.0): 1.673
Mean Optical Densities (NCI-H23; Log10 Concentration −8.0): 1.672
Mean Optical Densities (NCI-H460; Log10 Concentration −4.0): 0.213
Mean Optical Densities (NCI-H460; Log10 Concentration −5.0): 0.173
Mean Optical Densities (NCI-H460; Log10 Concentration −6.0): 0.830
Mean Optical Densities (NCI-H460; Log10 Concentration −7.0): 1.499
Mean Optical Densities (NCI-H460; Log10 Concentration −8.0): 1.799
Mean Optical Densities (LOX IMVI; Log10 Concentration −4.0): 0.352
Mean Optical Densities (LOX IMVI; Log10 Concentration −5.0): 0.176
Mean Optical Densities (LOX IMVI; Log10 Concentration −6.0): 0.742
Mean Optical Densities (LOX IMVI; Log10 Concentration −7.0): 0.974
Mean Optical Densities (LOX IMVI; Log10 Concentration −8.0): 1.204
Mean Optical Densities (M14; Log10 Concentration −4.0): 0.256
Mean Optical Densities (M14; Log10 Concentration −5.0): 0.211
Mean Optical Densities (M14; Log10 Concentration −6.0): 0.916
Mean Optical Densities (M14; Log10 Concentration −7.0): 0.974
Mean Optical Densities (M14; Log10 Concentration −8.0): 0.975
Mean Optical Densities (SN12C; Log10 Concentration −4.0): 0.308
Mean Optical Densities (SN12C; Log10 Concentration −5.0): 0.203
Mean Optical Densities (SN12C; Log10 Concentration −6.0): 1.093
Mean Optical Densities (SN12C; Log10 Concentration −7.0): 1.194
Mean Optical Densities (SN12C; Log10 Concentration −8.0): 1.209
